This assay addresses T1, NOP14 tagged with S-FLAG-SBP (SFB) (human) (UniProt P78316).
T1 sequence: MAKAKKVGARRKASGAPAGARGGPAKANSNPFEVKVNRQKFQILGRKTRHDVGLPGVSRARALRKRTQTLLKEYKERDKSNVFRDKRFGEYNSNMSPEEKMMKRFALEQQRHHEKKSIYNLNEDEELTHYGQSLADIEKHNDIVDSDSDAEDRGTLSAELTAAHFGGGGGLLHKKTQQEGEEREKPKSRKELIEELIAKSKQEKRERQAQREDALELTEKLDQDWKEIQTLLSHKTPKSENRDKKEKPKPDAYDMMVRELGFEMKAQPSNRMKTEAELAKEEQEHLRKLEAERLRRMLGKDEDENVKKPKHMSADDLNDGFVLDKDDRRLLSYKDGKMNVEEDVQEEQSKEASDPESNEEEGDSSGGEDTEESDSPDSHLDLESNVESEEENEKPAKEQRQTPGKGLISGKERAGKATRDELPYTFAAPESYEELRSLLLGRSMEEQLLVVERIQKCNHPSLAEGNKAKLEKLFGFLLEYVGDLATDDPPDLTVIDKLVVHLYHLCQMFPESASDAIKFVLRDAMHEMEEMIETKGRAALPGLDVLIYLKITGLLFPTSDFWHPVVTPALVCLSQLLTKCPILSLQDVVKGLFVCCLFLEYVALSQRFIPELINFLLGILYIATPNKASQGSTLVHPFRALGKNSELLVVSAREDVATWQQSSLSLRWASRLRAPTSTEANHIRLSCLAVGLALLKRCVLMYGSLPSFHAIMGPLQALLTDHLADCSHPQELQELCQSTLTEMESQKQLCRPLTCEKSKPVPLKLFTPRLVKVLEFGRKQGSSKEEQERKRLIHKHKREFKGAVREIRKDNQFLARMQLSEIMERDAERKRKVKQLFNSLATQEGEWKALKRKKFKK
Put plainly: affinity purification with mass spectrometry; tandem affinity purification (two rounds) of SFB-tagged NOP14 from stably expressing 293T cells; LC-MS/MS.

Results are given in words; binding and its absence hold for the method and conditions named. In cells and extracts the contact can be indirect. These calls come from enrichment with a bait or labelling near it, and not all partners need be listed. Sequences can lack the tags named with a protein.

B1: DEAH-box helicase 37 (DHX37) (protein, UniProt Q8IY37 1-1157)
chain: MGKLRRRYNIKGRQQAGPGPSKGPPEPPPVQLELEDKDTLKGVDASNALVLPGKKKKKTKAPPLSKKEKKPLTKKEKKVLQKILEQKEKKSQRAEMLQKLSEVQASEAEMRLFYTTSKLGTGNRMYHTKEKADEVVAPGQEKISSLSGAHRKRRRWPSAEEEEEEEEESESELEEESELDEDPAAEPAEAGVGTTVAPLPPAPAPSSQPVPAGMTVPPPPAAAPPLPRALAKPAVFIPVNRSPEMQEERLKLPILSEEQVIMEAVAEHPIVIVCGETGSGKTTQVPQFLYEAGFSSEDSIIGVTEPRRVAAVAMSQRVAKEMNLSQRVVSYQIRYEGNVTEETRIKFMTDGVLLKEIQKDFLLLRYKVVIIDEAHERSVYTDILIGLLSRIVTLRAKRNLPLKLLIMSATLRVEDFTQNPRLFAKPPPVIKVESRQFPVTVHFNKRTPLEDYSGECFRKVCKIHRMLPAGGILVFLTGQAEVHALCRRLRKAFPPSRARPQEKDDDQKDSVEEMRKFKKSRARAKKARAEVLPQINLDHYSVLPAGEGDEDREAEVDEEEGALDSDLDLDLGDGGQDGGEQPDASLPLHVLPLYSLLAPEKQAQVFKPPPEGTRLCVVATNVAETSLTIPGIKYVVDCGKVKKRYYDRVTGVSSFRVTWVSQASADQRAGRAGRTEPGHCYRLYSSAVFGDFEQFPPPEITRRPVEDLILQMKALNVEKVINFPFPTPPSVEALLAAEELLIALGALQPPQKAERVKQLQENRLSCPITALGRTMATFPVAPRYAKMLALSRQHGCLPYAITIVASMTVRELFEELDRPAASDEELTRLKSKRARVAQMKRTWAGQGASLKLGDLMVLLGAVGACEYASCTPQFCEANGLRYKAMMEIRRLRGQLTTAVNAVCPEAELFVDPKMQPPTESQVTYLRQIVTAGLGDHLARRVQSEEMLEDKWRNAYKTPLLDDPVFIHPSSVLFKELPEFVVYQEIVETTKMYMKGVSSVEVQWIPALLPSYCQFDKPLEEPAPTYCPERGRVLCHRASVFYRVGWPLPAIEVDFPEGIDRYKHFARFLLEGQVFRKLASYRSCLLSSPGTMLKTWARLQPRTESLLRALVAEKADCHEALLAAWKKNPKYLLAEYCEWLPQAMHPDIEKAWPPTTVH
Consider B1, for which the binding entry was “binds”.

B2: ribosomal RNA processing 12 homolog (RRP12) (protein, UniProt Q5JTH9 1-1297)
chain: MGRSGKLPSGVSAKLKRWKKGHSSDSNPAICRHRQAARSRFFSRPSGRSDLTVDAVKLHNELQSGSLRLGKSEAPETPMEEEAELVLTEKSSGTFLSGLSDCTNVTFSKVQRFWESNSAAHKEICAVLAAVTEVIRSQGGKETETEYFAALMTTMEAVESPESLAAVAYLLNLVLKRVPSPVLIKKFSDTSKAFMDIMSAQASSGSTSVLRWVLSCLATLLRKQDLEAWGYPVTLQVYHGLLSFTVHPKPKIRKAAQHGVCSVLKGSEFMFEKAPAHHPAAISTAKFCIQEIEKSGGSKEATTTLHMLTLLKDLLPCFPEGLVKSCSETLLRVMTLSHVLVTACAMQAFHSLFHARPGLSTLSAELNAQIITALYDYVPSENDLQPLLAWLKVMEKAHINLVRLQWDLGLGHLPRFFGTAVTCLLSPHSQVLTAATQSLKEILKECVAPHMADIGSVTSSASGPAQSVAKMFRAVEEGLTYKFHAAWSSVLQLLCVFFEACGRQAHPVMRKCLQSLCDLRLSPHFPHTAALDQAVGAAVTSMGPEVVLQAVPLEIDGSEETLDFPRSWLLPVIRDHVQETRLGFFTTYFLPLANTLKSKAMDLAQAGSTVESKIYDTLQWQMWTLLPGFCTRPTDVAISFKGLARTLGMAISERPDLRVTVCQALRTLITKGCQAEADRAEVSRFAKNFLPILFNLYGQPVAAGDTPAPRRAVLETIRTYLTITDTQLVNSLLEKASEKVLDPASSDFTRLSVLDLVVALAPCADEAAISKLYSTIRPYLESKAHGVQKKAYRVLEEVCASPQGPGALFVQSHLEDLKKTLLDSLRSTSSPAKRPRLKCLLHIVRKLSAEHKEFITALIPEVILCTKEVSVGARKNAFALLVEMGHAFLRFGSNQEEALQCYLVLIYPGLVGAVTMVSCSILALTHLLFEFKGLMGTSTVEQLLENVCLLLASRTRDVVKSALGFIKVAVTVMDVAHLAKHVQLVMEAIGKLSDDMRRHFRMKLRNLFTKFIRKFGFELVKRLLPEEYHRVLVNIRKAEARAKRHRALSQAAVEEEEEEEEEEEPAQGKGDSIEEILADSEDEEDNEEEERSRGKEQRKLARQRSRAWLKEGGGDEPLNFLDPKVAQRVLATQPGPGRGRKKDHGFKVSADGRLIIREEADGNKMEEEEGAKGEDEEMADPMEDVIIRNKKHQKLKHQKEAEEEELEIPPQYQAGGSGIHRPVAKKAMPGAEYKAKKAKGDVKKKGRPDPYAYIPLNRSKLNRRKKMKLQGQFKGLVKAARRGSQVGHKNRRKDRRP
Turning to B2, the binding entry is “binds”.

B3: poly(A)-specific ribonuclease (PARN) (protein, UniProt O95453 1-639)
chain: MEIIRSNFKSNLHKVYQAIEEADFFAIDGEFSGISDGPSVSALTNGFDTPEERYQKLKKHSMDFLLFQFGLCTFKYDYTDSKYITKSFNFYVFPKPFNRSSPDVKFVCQSSSIDFLASQGFDFNKVFRNGIPYLNQEEERQLREQYDEKRSQANGAGALSYVSPNTSKCPVTIPEDQKKFIDQVVEKIEDLLQSEENKNLDLEPCTGFQRKLIYQTLSWKYPKGIHVETLETEKKERYIVISKVDEEERKRREQQKHAKEQEELNDAVGFSRVIHAIANSGKLVIGHNMLLDVMHTVHQFYCPLPADLSEFKEMTTCVFPRLLDTKLMASTQPFKDIINNTSLAELEKRLKETPFNPPKVESAEGFPSYDTASEQLHEAGYDAYITGLCFISMANYLGSFLSPPKIHVSARSKLIEPFFNKLFLMRVMDIPYLNLEGPDLQPKRDHVLHVTFPKEWKTSDLYQLFSAFGNIQISWIDDTSAFVSLSQPEQVKIAVNTSKYAESYRIQTYAEYMGRKQEEKQIKRKWTEDSWKEADSKRLNPQCIPYTLQNHYYRNNSFTAPSTVGKRNLSPSQEEAGLEDGVSGEISDTELEQTDSCAEPLSEGRKKAKKLKRMKKELSPAGSISKNSPATLFEVPDTW
For the molecule B3, the binding entry is “binds”.

B4: bystin-like (BYSL) (protein, UniProt Q13895 1-437)
chain: MPKFKAARGVGGQEKHAPLADQILAGNAVRAGVREKRRGRGTGEAEEEYVGPRLSRRILQQARQQQEELEAEHGTGDKPAAPRERTTRLGPRMPQDGSDDEDEEWPTLEKAATMTAAGHHAEVVVDPEDERAIEMFMNKNPPARRTLADIIMEKLTEKQTEVETVMSEVSGFPMPQLDPRVLEVYRGVREVLSKYRSGKLPKAFKIIPALSNWEQILYVTEPEAWTAAAMYQATRIFASNLKERMAQRFYNLVLLPRVRDDVAEYKRLNFHLYMALKKALFKPGAWFKGILIPLCESGTCTLREAIIVGSIITKCSIPVLHSSAAMLKIAEMEYSGANSIFLRLLLDKKYALPYRVLDALVFHFLGFRTEKRELPVLWHQCLLTLVQRYKADLATDQKEALLELLRLQPHPQLSPEIRRELQSAVPRDVEDVPITVE
B4: the binding entry is reported as “binds”.

(Values after publication PMC10891341.)
